The record followed here is patent publication US11560518B2, “Polymerizable liquid crystal compound, polymerizable composition, polymer, retardation film, method for producing retardation film, transfer laminate, optical member, method for producing optical member, and display device” (DAI NIPPON PRINTING CO., LTD., priority 2017, dated 2023).

Some ranges recur; such a range may be that of the whole group of compounds.

Data set [1] is described as follows: Alignment property of the retardation layer observed with a polarizing microscope. To be noted: cured 1 μm retardation layer; compound 100% by mass of polymerizable liquid crystal compound; photo-alignment film.
A short description of data set [2]: Birefringence index Δn at 550 nm from in-plane retardation Re at 550 nm and film thickness d. To be noted: compound 100% by mass.
Data set [3] in a line: Retardation (wavelength dispersion property): in-plane retardation Re at 450, 550 and 650 nm by KOBRA-WR, layer formed on photo-alignment film. To be noted: x=Re(450)/Re(550), y=Re(650)/Re(550), compound 100% by mass.
Data set [4] is described as follows: Wavelength dispersion property of retardation layer formed on rubbing-treated polyimide alignment film-attached glass. To be noted: dried at solid-liquid crystal phase transition temperature + 10° C., single compound.

With `C=CC(=O)OCCCCCCOc1ccc(OC(=O)C2CCC(C(=O)Oc3ccc(-c4ccc(OC(=O)C5CCC(C(=O)Oc6ccc(OCCCCCCOC(=O)C=C)cc6)CC5)c(/C=N/N(CCCCCC)c5nc6ccc(OC)cc6s5)c4)cc3/C=N/N(CCCCCC)c3nc4ccc(OC)cc4s3)CC2)cc1` (stereo not drawn) [Compound 5], in data set [1], the Alignment property entry was “A (Uniform alignment was found by visual observation, and the aligned area was found to be 90% or more by the polarizing microscopy.)”. For the same compound, in data set [2], the Birefringence result is given as “A (0.08 or more)”. In data set [3], the Wavelength dispersion property entry is “A (0.6≤x<0.90 and 1<y (reverse wavelength dispersion property))”.

For `C=CC(=O)OCCCCCCOc1ccc(OC(=O)C2CCC(C(=O)Oc3ccc(-c4ccc(OC(=O)C5CCC(C(=O)Oc6ccc(OCCCCCCOC(=O)C=C)cc6)CC5)c(/C=N/N(CCCCCC)c5nc6ccc(F)cc6s5)c4)cc3/C=N/N(CCCCCC)c3nc4ccc(F)cc4s3)CC2)cc1` (stereo not drawn) [Compound 2], the Alignment property entry in data set [1] was “A (Uniform alignment was found by visual observation, and the aligned area was found to be 90% or more by the polarizing microscopy.)”. Also, in data set [2], the Birefringence result is on record as “A (0.08 or more)”. Besides, the Wavelength dispersion property entry in data set [3] is “A (0.6≤x<0.90 and 1<y (reverse wavelength dispersion property))”.

Take `C=CC(=O)OCCCCCCOc1ccc(C(=O)Oc2ccc(-c3ccc(OC(=O)c4ccc(OCCCCCCOC(=O)C=C)cc4)c(/C=N/Nc4nc5ccccc5s4)c3)cc2)cc1` [compound 2, reference compound]: the Wavelength dispersion property result in data set [4] was “C (0.95≤x<1 and 1<y)”; in data set [3], “C (0.95≤x<1 and 1<y)”. Also, the Alignment property result in data set [1] was “B (The same level of alignment as A was not found by visual observation, and the aligned area was found to be 50% or more and less than 90% by the polarizing microscopy.)”. Besides, the Birefringence result in data set [2] was “C (Less than 0.075)”.

With `C=CC(=O)OCCCCCCOc1ccc(OC(=O)C2CCC(C(=O)Oc3ccc(OC(=O)C4CCC(C(=O)Oc5ccc(OCCCCCCOC(=O)C=C)cc5)CC4)c(/C=N/N(CCCCCC)c4nc5ccccc5s4)c3)CC2)cc1` (stereo not drawn) [compound 1, reference compound], the Wavelength dispersion property result is “A (0.6≤x<0.90 and 1<y (reverse wavelength dispersion property))” in data set [4]; “A (0.6≤x<0.90 and 1<y (reverse wavelength dispersion property))” in data set [3]. The Alignment property result in data set [1] was “A (Uniform alignment was found by visual observation, and the aligned area was found to be 90% or more by the polarizing microscopy.)”. Further, the Birefringence result in data set [2] is recorded as “C (Less than 0.075)”.

On to `C=CC(=O)OCCCCCCOc1ccc(C(=O)OC2CCC(C(=O)Oc3ccc(-c4ccc(OC(=O)C5CCC(OC(=O)c6ccc(OCCCCCCOC(=O)C=C)cc6)CC5)c(/C=N/N(CCCCCC)c5nc6ccccc6s5)c4)cc3/C=N/N(CCCCCC)c3nc4ccccc4s3)CC2)cc1` (stereo not drawn) [Compound 8], for which the Alignment property entry in data set [1] was “A (Uniform alignment was found by visual observation, and the aligned area was found to be 90% or more by the polarizing microscopy.)”. Besides, the Birefringence result in data set [2] is “A (0.08 or more)”. Moreover, the Wavelength dispersion property entry in data set [3] was “A (0.6≤x<0.90 and 1<y (reverse wavelength dispersion property))”.

As to `C=CC(=O)OCCCCCCOc1ccc(OC(=O)C2CCC(C(=O)Oc3ccc(-c4ccc(OC(=O)C5CCC(C(=O)Oc6ccc(OCCCCCCOC(=O)C=C)cc6)CC5)c(/C=N/N(CCOCCCC)c5nc6ccccc6o5)c4)cc3/C=N/N(CCOCCCC)c3nc4ccccc4o3)CC2)cc1` (stereo not drawn) [Compound 11], the Alignment property entry in data set [1] is “A (Uniform alignment was found by visual observation, and the aligned area was found to be 90% or more by the polarizing microscopy.)”. Also, in data set [2], the Birefringence result is “A (0.08 or more)”. For the same compound, the Wavelength dispersion property entry in data set [3] is “A (0.6≤x<0.90 and 1<y (reverse wavelength dispersion property))”.

For `C=CC(=O)OCCCCCCOc1ccc(OC(=O)C2CCC(C(=O)Oc3ccc(-c4ccc(OC(=O)C5CCC(C(=O)Oc6ccc(OCCCCCCOC(=O)C=C)cc6)CC5)c(/C=N/N(CCCCCC)c5nc6ccccc6s5)c4)cc3/C=N/N(CCCCCC)c3nc4ccccc4s3)CC2)cc1` (stereo not drawn) [Compound 1], the Alignment property entry in data set [1] was “A (Uniform alignment was found by visual observation, and the aligned area was found to be 90% or more by the polarizing microscopy.)”. Further, in data set [2], the Birefringence entry is listed as “A (0.08 or more)”. In data set [3], the Wavelength dispersion property result was “A (0.6≤x<0.90 and 1<y (reverse wavelength dispersion property))”.

On to `C=CC(=O)OCCCCCCOc1ccc(OC(=O)C2CCC(C(=O)Oc3ccc(-c4ccc(OC(=O)C5CCC(C(=O)Oc6ccc(OCCCCCCOC(=O)C=C)cc6)CC5)c(/C=N/N(CCCCCC)c5nc6ccc(OCC)cc6s5)c4)cc3/C=N/N(CCCCCC)c3nc4ccc(OCC)cc4s3)CC2)cc1` (stereo not drawn) [Compound 3], for which, in data set [1], the Alignment property result was “A (Uniform alignment was found by visual observation, and the aligned area was found to be 90% or more by the polarizing microscopy.)”. Moreover, the Birefringence entry in data set [2] is on record as “A (0.08 or more)”. For the same compound, the Wavelength dispersion property result in data set [3] is “A (0.6≤x<0.90 and 1<y (reverse wavelength dispersion property))”.

On to `C=CC(=O)OCCCCCCOc1ccc(OC(=O)C2CCC(C(=O)Oc3ccc(-c4ccc(OC(=O)C5CCC(C(=O)Oc6ccc(OCCCCCCOC(=O)C=C)cc6)CC5)c(/C=N/N(CC5CCCO5)c5nc6ccccc6s5)c4)cc3/C=N/N(CC3CCCO3)c3nc4ccccc4s3)CC2)cc1` (stereo not drawn) [Compound 13], for which the Alignment property entry in data set [1] is “A (Uniform alignment was found by visual observation, and the aligned area was found to be 90% or more by the polarizing microscopy.)”. For the same compound, the Birefringence result in data set [2] is “A (0.08 or more)”. In addition, the Wavelength dispersion property entry in data set [3] is “A (0.6≤x<0.90 and 1<y (reverse wavelength dispersion property))”.

With `C=CC(=O)OCCCCCCOc1ccc(OC(=O)C2CCC(C(=O)Oc3ccc(-c4ccc(OC(=O)C5CCC(C(=O)Oc6ccc(OCCCCCCOC(=O)C=C)cc6)CC5)c(/C=N/N(CCOCCOC)c5nc6ccccc6s5)c4)cc3/C=N/N(CCOCCOC)c3nc4ccccc4s3)CC2)cc1` (stereo not drawn) [Compound 4], the Alignment property result in data set [1] is “A (Uniform alignment was found by visual observation, and the aligned area was found to be 90% or more by the polarizing microscopy.)”. The Birefringence entry in data set [2] is reported as “A (0.08 or more)”. In addition, in data set [3], the Wavelength dispersion property result is “A (0.6≤x<0.90 and 1<y (reverse wavelength dispersion property))”.

For the compound `C=CC(=O)OCCCCCCOc1ccc(OC(=O)C2CCC(C(=O)Oc3ccc(-c4ccc(OC(=O)C5CCC(C(=O)Oc6ccc(OCCCCCCOC(=O)C=C)cc6)CC5)c(/C=N/N(CCOCCCC)c5nc6ccccc6s5)c4)cc3/C=N/N(CCOCCCC)c3nc4ccccc4s3)CC2)cc1` (stereo not drawn) [Compound 10], in data set [1], the Alignment property result was “A (Uniform alignment was found by visual observation, and the aligned area was found to be 90% or more by the polarizing microscopy.)”. In addition, in data set [2], the Birefringence entry is recorded as “A (0.08 or more)”. Further, the Wavelength dispersion property entry in data set [3] is “A (0.6≤x<0.90 and 1<y (reverse wavelength dispersion property))”.

Regarding `C=CC(=O)OCCCCCCOc1ccc(C(=O)O[C@H]2CC[C@H](OC(=O)c3ccc(OCCCCCCOC(=O)C=C)cc3)CC2)cc1` [Compound B-6], the Wavelength dispersion property entry in data set [4] was “C (0.95≤x<1 and 1<y)”.
